From paper PMC11994786
No constants are given. Whether binding was seen depends on the method and setting. Binding seen in cells or lysates may run through a third protein. Some binding calls cover weakened binding; strength is not graded here.

By UniProt entry, the sequences of proteins in these tests, tags left out.
UniProt P69566: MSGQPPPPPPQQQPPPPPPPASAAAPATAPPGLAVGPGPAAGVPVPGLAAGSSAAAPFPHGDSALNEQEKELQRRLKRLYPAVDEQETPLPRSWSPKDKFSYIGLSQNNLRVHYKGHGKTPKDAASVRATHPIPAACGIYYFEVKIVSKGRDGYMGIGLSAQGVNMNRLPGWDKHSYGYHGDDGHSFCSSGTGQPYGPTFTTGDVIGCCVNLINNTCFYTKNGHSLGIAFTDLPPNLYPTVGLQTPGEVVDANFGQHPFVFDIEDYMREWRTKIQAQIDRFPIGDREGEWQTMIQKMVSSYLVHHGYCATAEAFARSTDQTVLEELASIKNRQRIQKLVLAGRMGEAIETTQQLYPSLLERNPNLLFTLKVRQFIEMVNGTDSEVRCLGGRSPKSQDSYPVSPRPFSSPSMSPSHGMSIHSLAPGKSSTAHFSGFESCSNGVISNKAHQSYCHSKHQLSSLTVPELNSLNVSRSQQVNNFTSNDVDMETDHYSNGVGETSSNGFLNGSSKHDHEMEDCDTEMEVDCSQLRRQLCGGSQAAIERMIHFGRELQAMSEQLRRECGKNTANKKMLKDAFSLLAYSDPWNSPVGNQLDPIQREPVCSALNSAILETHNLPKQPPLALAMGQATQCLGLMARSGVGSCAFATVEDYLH
UniProt Q9D7M1: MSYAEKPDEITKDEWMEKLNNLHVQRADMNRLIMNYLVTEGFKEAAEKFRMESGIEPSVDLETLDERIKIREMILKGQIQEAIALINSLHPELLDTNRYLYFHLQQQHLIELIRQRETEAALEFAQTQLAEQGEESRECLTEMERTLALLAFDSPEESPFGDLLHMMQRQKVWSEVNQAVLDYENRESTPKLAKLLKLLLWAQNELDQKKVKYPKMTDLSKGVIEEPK
UniProt Q6VN19: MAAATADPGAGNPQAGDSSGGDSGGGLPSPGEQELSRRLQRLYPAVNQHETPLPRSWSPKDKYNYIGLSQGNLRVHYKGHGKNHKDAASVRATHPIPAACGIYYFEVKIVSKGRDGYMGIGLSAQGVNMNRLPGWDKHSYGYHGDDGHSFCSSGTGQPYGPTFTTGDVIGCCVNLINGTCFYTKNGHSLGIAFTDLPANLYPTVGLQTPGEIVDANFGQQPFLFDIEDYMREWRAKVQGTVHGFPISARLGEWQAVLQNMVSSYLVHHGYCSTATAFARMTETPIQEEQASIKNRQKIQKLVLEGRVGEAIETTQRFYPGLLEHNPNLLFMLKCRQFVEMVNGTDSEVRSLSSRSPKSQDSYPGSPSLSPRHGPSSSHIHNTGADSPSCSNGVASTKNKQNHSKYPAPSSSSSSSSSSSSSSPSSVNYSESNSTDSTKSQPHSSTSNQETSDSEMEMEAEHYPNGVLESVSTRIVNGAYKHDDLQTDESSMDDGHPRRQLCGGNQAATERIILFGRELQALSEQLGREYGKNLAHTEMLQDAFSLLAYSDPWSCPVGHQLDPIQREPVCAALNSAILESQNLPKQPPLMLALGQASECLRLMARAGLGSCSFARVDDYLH

B1: Maea (Macrophage erythroblast attacher, E3 ubiquitin ligase) (protein, UniProt Q4VC33 1-396)
chain: MAVQESAAQLSMTLKVQEYPTLKVPYETLNKRFRAAQKNIDRETSHVTMVVAELEKTLSSCPAVDSVVSLLDGVVEKLSVLKRKAVESIQAEDESAKLCKRRIEHLKEHSSDQPAAASMWKRKRMDRMMVEHLLRCGYYNTAVKLARQSGIEDLVNIEMFLTAKEVEESLERRETATCLAWCHDNKSRLRKMKSCLEFSLRIQEFIELVRQNKRLDAVRHARKHFSQAEGSQLDEVRQVMGMLAFPPDTHISPYKDLLDPARWRMLIQQFRYDNYRLHQLGNSSVFTLTLQAGLSAIKTPQCYKEDGSSKSPDCPVCSRSLNKLAQPLPMAHCANSRLVCKISGDVMNENNPPMMLPNGYVYGYNSLLSIRQDDKVVCPRTKEVFHFSQAEKVYIM

Legend:
[1] = biological target: RanBP9-TT (endogenous RanBP9 with a double tag made of HA and V5) (mouse) (UniProt P69566); experiment: co-IP; anti-V5 magnetic beads on lysates of RanBP9-TT MEFs grown with 10% serum or deprived of serum for 4 h; IgG beads as control; Western blot
[2] = biological target: RanBP9-V5 (Ran Binding Protein 9 with a V5 tag at the C-terminus) (mouse) (UniProt P69566); experiment: co-IP; anti-V5 magnetic beads on 1 mg pre-cleared NP-40 lysate of lung, liver or BMDM of E2aBP9V5 mice, overnight at 4 °C, 5 washes in NP-40 buffer, Western blot

Molecule | binding [1] | binding [2]
Gid8 (Glucose-induced degradation deficient 8) (from UniProt Q9D7M1 1-228) | binds | binds
RanBP10 (Ran Binding Protein 10) (from UniProt Q6VN19 1-620) | binds | 
B1 |  | binds
